Results from patent US8435756B2, “Anionic acid-labile surfactants and methods of use” (Protea Biosciences, Inc., priority 2008, dated 2013).

Test: Protein electroelution from a polyacrylamide gel (GPR-800 system)
Settings: 0.5% surfactant in Tris-glycine buffer; for presence of the protein in the collection reservoirs by MALDI-TOF mass spectrometry: after 15 min
Experimental: An embodiment of an anionic acid-labile surfactant (“AALS-6”) is used for protein electroelution from a polyacrylamide gel using Protea's GPR-800 system. A gel spot comprising the protein is placed in the gel loading reservoirs. A 0.5% anionic acid-labile surfactant is prepared by mixing the anionic acid-labile surfactant with Tris-glycine buffer. The mixture is placed in the gel loading reservoir to form a protein-surfactant complex (sample-surfactant complex). […] The mixture is used to transfer a protein from a coomassie stained gel into solution when voltage is applied to the sample. The movement of the protein-surfactant complex is tracked by the disappearance of the blue color of coomassie from the gel loading reservoirs and the emergence of the blue color of coomassie in the sample collection reservoirs. The movement of the protein-surfactant is complete after 15 min. The presence of the protein in the collection reservoirs is confirmed by MALDI-TOF mass spectrometry.
Similar experiments are performed with three (3) conventional anionic acid-labile surfactants. A 0.5% Proteamax, 0.5% Rapigest, and 0.5% PPS are prepared by mixing the surfactants with Tris-glycine buffer. […] No movement of the protein-coomassie complex is detectable for the 0.5% PPS surfactant.

| SMILES | presence of the protein in the collection reservoirs by MALDI-TOF mass spectrometry | time after which movement of the protein-surfactant complex is complete (voltage applied) |
| --- | --- | --- |
| CCCCCCOC(C)(COS(=O)(=O)[O-])OCCCCCC.[Na+] [AALS-6, sodium 2,2-bis(hexyloxy)propyl sulfate] | confirmed | 15 min |
| CCCCCCCCCCC(OC(=O)NCCCS(=O)(=O)[O-])c1ccco1.[Na+] (stereo not shown) [Proteamax] | No protein is detected | – |
| CCCCCCCCCCCC1(C)OCC(COCCCS(=O)(=O)[O-])O1.[Na+] (stereo not shown) [Rapigest] | No protein is detected | – |
